Test results: the supplement of paper PMC5249140, “Delineating Substrate Diversity of Disparate Short-Chain Dehydrogenase Reductase from Debaryomyces hansenii” (PLoS ONE, 2017)
Repeats are few or missing, and single values can be far off.

system: DHK short-chain dehydrogenase reductase (Debaryomyces hansenii, Q6BTD7); test: apparent turnover number kcat for ketone reduction (NADPH consumption, 100 uM substrate) (s-1); higher = faster reduction of the ketone by the enzyme; conditions: substrate concentration 100 µM; NADPH 100 µM; pH 7.4; 25 °C
Description: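 Purified N-His6 DHK (unannotated SDR, Debaryomyces hansenii) was screened against a prochiral ketone library: 100 uM substrate, 100 uM NADPH, 1% BSA, 4% DMSO in 100 mM sodium phosphate / 100 mM NaCl pH 7.4 at 25 C, ~27 nM enzyme. Rate was followed by NADPH depletion at 340 nm and reported as apparent kcat (s-1) at a single substrate concentration; no replicates stated.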

Row | Structure (SMILES) | apparent turnover number kcat
1 | CC1=CC(=NOC(=O)c2cccc([N+](=O)[O-])c2)C=C(C)C1=O | 6.72
2 | CC(=O)N1CN2CN(C(C)=O)CC(C(=O)c3ccc([N+](=O)[O-])cc3)(C2)C1 | 6.52
3 | Nc1c(C(=O)CCl)c(=O)[nH]c(=O)n1Cc1ccccc1 | 6.1
4 | Cc1ccc(C)c(C(=O)COC(=O)c2nc3nccc(C)n3n2)c1 | 4.13
5 | O=C(CNc1ccc2c(c1)oc1ccccc12)c1ccc([N+](=O)[O-])cc1 | 2.99
6 | CC(=O)c1ccc(NC2OC(CO)C(O)C(O)C2O)cc1 (configuration not stated) | 4.94
7 | CN1C(=O)C(O)=C(C(=O)c2ccc(Br)cc2)C1c1ccc([N+](=O)[O-])cc1 (configuration not stated) | 10.9
8 | CC1(C)CC(=O)c2c(oc3ccc(NS(=O)(=O)c4ccc(Cl)cc4)cc23)C1 | 0.00571
9 | Cn1c(=O)[nH]c(=O)c2c1nc(Br)n2CC(=O)c1ccccc1 | 3.08
10 | O=C(CNC(=O)c1ccccc1)OCC(=O)c1ccc2ccccc2c1 | 7.01
11 | COC(=O)c1cccc(NS(=O)(=O)c2cccc(C(C)=O)c2)c1 | 4.29
12 | COc1ccc(N2CCN(CC(=O)c3ccc(O)cc3O)CC2)cc1 | 3.86
13 | Cc1cc(C)nc(SCC(=O)c2ccc(O)c(O)c2)n1 | 8.14
14 | O=C(CSc1nnc(-c2ccco2)o1)c1ccc2c(c1)OCCO2 | 5.43
15 | O=C(Cn1cc(C(F)(F)F)ccc1=O)c1cc2ccccc2o1 | 3.68
16 | O=C1c2cc(S(=O)(=O)Nc3ccc(F)cc3)ccc2-c2ccc(S(=O)(=O)Nc3ccc(F)cc3)cc21 | 4.16
17 | O=C(COC(=O)c1ccc2ccccc2n1)c1ccc([N+](=O)[O-])cc1 | 3.89
18 | CC(=O)c1c(C)oc2ccc(N(C(C)=O)S(=O)(=O)c3ccc(C)c([N+](=O)[O-])c3)cc12 | 4.76
19 | O=C(COC(=O)c1cc2ccccc2oc1=O)c1ccccc1Cl | 5.23
20 | O=C(CSc1nnnn1-c1cccc2ccccc12)c1ccc(O)c(O)c1 | 6.4
21 | O=C(CCN1C(=O)c2ccccc2C1=O)C[N+](=O)[O-] | 4.88
22 | Cc1ccc(O)c(C(=O)c2cnc3cc4c(cc3c2)OCCO4)c1 | 4.66
23 | Cn1c(N)c(C(=O)COC(=O)Cc2ccc(Cl)cc2)c(=O)n(C)c1=O | 2.59
24 | COc1ccc(C(=O)CSc2nnc(-c3ccc(F)cc3)o2)cc1 | 7.22

Shown in markdown: entries from further up.

| Row | Structure (SMILES) | apparent turnover number kcat |
| --- | --- | --- |
| 1 | CC1=CC(=NOC(=O)c2cccc([N+](=O)[O-])c2)C=C(C)C1=O | 6.72 |
| 16 | O=C1c2cc(S(=O)(=O)Nc3ccc(F)cc3)ccc2-c2ccc(S(=O)(=O)Nc3ccc(F)cc3)cc21 | 4.16 |
| 23 | Cn1c(N)c(C(=O)COC(=O)Cc2ccc(Cl)cc2)c(=O)n(C)c1=O | 2.59 |

Later entries:

Row | Structure (SMILES) | apparent turnover number kcat
25 | N#Cc1cnc(SCC(=O)c2ccc3c(c2)NC(=O)CO3)nc1N | 5.07
26 | Cc1ccc(C2CC(=O)NC3=C2C(=O)CC(c2ccccc2)C3)cc1[N+](=O)[O-] (configuration not stated) | 5.53
27 | CCn1c(=O)[nH]c(=O)c2c(N)c(C(=O)c3ccccc3OC)sc21 | 5.17
28 | CCOC(=O)C1=C(C)NC2=C(C(=O)CC(C)(C)C2)C1c1cc([N+](=O)[O-])c(C)s1 (configuration not stated) | 4.3
29 | COc1ccc(OCC(=O)c2ccc(O)c(C)c2O)cc1 | 4.07
30 | CCc1c(C#N)c(SCC(=O)c2ccc(C)c(C)c2)nc2c1C(=O)CC(C)(C)C2 | 5.04
31 | O=C(CSc1nnnn1Cc1cccs1)c1ccc2c(c1)CCC2 | 4.54
32 | O=C(CN1C(=O)c2ccc(Br)cc2C1=O)OCC(=O)c1ccc(Cl)cc1Cl | 3.11
33 | CC(=O)c1cccc(NS(=O)(=O)c2ccc(C)c([N+](=O)[O-])c2)c1 | 7.72
34 | O=C(CCNc1ccc2ccccc2c1)c1ccc([N+](=O)[O-])cc1 | 2.74
35 | Cc1cc(-n2c(C)cc(C(=O)Cn3c(=O)cnc4ccccc43)c2C)no1 | 2.48
36 | O=C(COC(=O)c1cccnc1)c1ccc(Cl)cc1 | 6.6
37 | O=C(CN1CCN(c2ccc(F)cc2)CC1)c1ccc(O)cc1O | 5.99
38 | O=C(CCN1C(=O)c2ccccc2C1=O)OCC(=O)c1ccc[nH]1 | 5.32
39 | O=C(CSc1nc2ccccc2o1)c1nnc(-c2ccccc2)o1 | 4.07
40 | O=C([O-])CCN1C(=O)c2ccc(C(=O)c3ccc(C(=O)[O-])cc3)cc2C1=O | 5.23
41 | CC1=CC(=NOC(=O)c2ccc([N+](=O)[O-])cc2)C=C(C)C1=O | 3.23
42 | CC(C)c1noc2ncc(C(=O)c3ccccc3O)cc12 | 6.79
43 | Cc1ccc(S(=O)(=O)CC(=O)c2cccc([N+](=O)[O-])c2)cc1 | 4.78
44 | O=C(CSc1nnnn1C1CCCC1)c1ccc2c(c1)CCC2 | 3.81
45 | CC(C)CCN1C(=O)c2ccc(C(=O)c3cccc([N+](=O)[O-])c3)cc2C1=O | 5.74
46 | O=C(CN1CCN(c2cccc(Cl)c2)CC1)c1ccc(O)cc1O | 8.14
47 | COc1cccc(N(CC(=O)Nc2cccc(C(C)=O)c2)S(C)(=O)=O)c1 | 6.76
48 | O=C(CSc1nnnn1C1CCCC1)c1ccc2c(c1)OCO2 | 0.674

Row | Structure (SMILES) | apparent turnover number kcat
49 | O=C1COc2ccc(C(=O)COC(=O)c3ccccc3Cl)cc2N1 | 4.47
50 | COc1cccc(NC(=O)CC(=O)c2ccccc2)c1 | 4.39
51 | Cc1c(O)ccc(C(=O)CN2C(=O)c3ccccc3C2=O)c1O | 5.82
52 | O=C(CSc1nnc(-c2ccc(O)cc2)o1)c1ccc(Cl)cc1 | 4.12
53 | Cc1ccc(C(=O)c2coc3c2C(=O)C(=O)C(Br)=C3)cc1 | 3.5
54 | CCCn1c(N)c(C(=O)CSc2nnc(N)s2)c(=O)[nH]c1=O | 8.15
55 | CC(=O)c1cccc(S(=O)(=O)Nc2cccnc2)c1 | 4.62
56 | O=C(CNC(=O)c1ccccc1)OCC(=O)c1ccc([N+](=O)[O-])cc1 | 4.39
57 | O=C(CNC(=O)c1ccccc1F)OCC(=O)c1c[nH]c2ccccc12 | 4.48
58 | O=C1c2ccccc2C(=O)c2c(NC(=O)c3cccc4c3C(=O)c3ccccc3-4)cccc21 | 2.96
59 | O=C(CCN1C(=O)c2cccc([N+](=O)[O-])c2C1=O)OCC(=O)c1ccc(Br)s1 | 5.44
60 | CCOc1cc(C2C3=C(CCCC3=O)Nc3[nH]c(=O)[nH]c(=O)c32)ccc1O (configuration not stated) | 5.96
61 | O=C(CSc1nnc(-c2ccccc2Cl)[nH]1)c1ccc(O)c(O)c1 | 0.437
62 | O=C(CN1C(=O)c2ccccc2C1=O)OCC(=O)c1ccc(Br)cc1 | 2.6
63 | CC(=O)c1cccc(-n2nnn(C3CC(=O)C4OCC3O4)c2=S)c1 (configuration not stated) | 2.95
64 | O=C(CSC(=S)N1CCOCC1)c1ccccc1 | 3.13
65 | O=C(c1cnn(C(=O)c2ccncc2)c1)c1ccccc1O | 5.25
66 | CC1C(=O)C(C)C(c2ccccc2O)NC1c1ccccc1O (configuration not stated) | 0.0454
67 | O=C(c1cnc2cc3c(cc2c1)OCO3)c1cc(F)ccc1O | 4.67
68 | O=C(CSc1nnc(-c2cccnc2)o1)c1ccc(Br)cc1 | 4.42
69 | CCc1c(C#N)c(SCc2ccc3c(c2)OCCO3)nc2c1C(=O)CC(C)(C)C2 | 0.321
70 | CC(=O)N(C1=C(O)C(=O)c2ccccc2C1=O)c1ccccc1 | 6.06
71 | COc1ccc(C(=O)CSc2nc(=O)[nH]c3c2CCC3)cc1 | 6.52
72 | O=C(COC(=O)c1cc(O)nc2ccccc12)c1ccccc1 | 3.62
